According to article PMC7819943, “Rice protein-binding microarrays: a tool to detect cis-acting elements near promoter regions in rice”:
Some of the results follow.

Protein sequences, listed by entry. Tags and fused reporters are not part of them.
UniProt Q0JBA9, entry or part of it: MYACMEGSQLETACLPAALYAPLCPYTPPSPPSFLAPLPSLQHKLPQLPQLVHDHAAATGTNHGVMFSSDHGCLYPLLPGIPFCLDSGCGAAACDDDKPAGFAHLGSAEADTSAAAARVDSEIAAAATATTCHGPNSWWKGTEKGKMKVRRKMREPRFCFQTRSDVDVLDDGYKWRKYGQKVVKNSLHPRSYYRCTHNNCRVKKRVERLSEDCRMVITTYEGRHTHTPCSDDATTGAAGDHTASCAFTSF

Target: OsWRKY34 (Oryza sativa, UniProt Q0JBA9 1-250)
Experiment: protein-binding microarray (RPBM); PBS, 2% BSA, 51.3 ng/ul salmon testes DNA, 50 uM zinc acetate, 200 nM TF, 25 C, 1 h; high values mean tight binding
Conditions: protein: recombinant; tags: N-terminal polyhistidine and DsRed monomer fusion (pET32a); label: CyDye5-dUTP incorporated in the synthesized complementary strand; 3' TTTTT single-stranded linker to array surface; dsDNA, one strand shown
Outline: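 A custom Agilent array was converted to double-stranded form by primer extension with Cy5-dUTP and blocked with 2% BSA. Protein at 200 nM in PBS with 2% BSA, salmon testes DNA and 50 µM zinc acetate was applied for 1 h at 25 °C, followed by washing. The proteins were polyhistidine–DsRed N-terminal fusions of transcription factors, expressed in E. coli BL21-CodonPlus and Ni–NTA-purified. The binding signal is per-feature fluorescence intensity (arbitrary units) from an Axon 4000B scanner.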

| Sequence | binding signal |
| --- | --- |
| ATCATGCGCTAATAGCTACTGTGTATCTTTTCTTCTCTTTCGGAGTCACCTAGTGCAG | 8520 fluorescence intensity (a.u.) |
| TTTGTACCCGTTTTCTACTTTTTTTGTTTCATATTATTAACGGAGTCACCTAGTGCAG | 10900 fluorescence intensity (a.u.) |
| GATTTTTTTTTTACGGACGGAATTTCTTTTCCCTTTTTTACGGAGTCACCTAGTGCAG | 9380 fluorescence intensity (a.u.) |
| GCTTCTGGACCTCTCGTGGTGGTGGTGGTGGCCTCTTCTTCGGAGTCACCTAGTGCAG | 11400 fluorescence intensity (a.u.) |
| GATATTATGATAATTTTTTTCAATACGTTTTTACCGTACCCGGAGTCACCTAGTGCAG | 8540 fluorescence intensity (a.u.) |
| TGTGGCGTATTGATGTGCTCTCATGGTCTCATTATCATTTCGGAGTCACCTAGTGCAG | 8540 fluorescence intensity (a.u.) |
| CCCACAGTCGTCCAGTCCGATTTTCGTCCCTTGACTGCAACGGAGTCACCTAGTGCAG | 10000 fluorescence intensity (a.u.) |
| CCTTAGCCGACACCACCTTCTCGCCACCGTAATTTACCTTCGGAGTCACCTAGTGCAG | 9580 fluorescence intensity (a.u.) |
| CTACTCCCTCCATTTTATATTATAAGTCATTTGACTTTTTCGGAGTCACCTAGTGCAG | 10900 fluorescence intensity (a.u.) |
| GTCACCCAGCACGGCAATTTCTGACTATTGTACTATTATTCGGAGTCACCTAGTGCAG | 9820 fluorescence intensity (a.u.) |
| CCACTCGTACCATCGACACCCTACTTTTTTTAAGGAGAAACGGAGTCACCTAGTGCAG | 8040 fluorescence intensity (a.u.) |
| ACCTATTTTTTTCATGACTATACTGTCTCTATATTTTTTACGGAGTCACCTAGTGCAG | 9280 fluorescence intensity (a.u.) |
| TCTTGTGGTGCCTTTTTCCTGCTTTTCAGCTTTCTAGGACCGGAGTCACCTAGTGCAG | 11600 fluorescence intensity (a.u.) |
| ACCTCCACTTCTCAACCAATCATAACCCATTCCTATTTAACGGAGTCACCTAGTGCAG | 9580 fluorescence intensity (a.u.) |
| CTGCATCGACATCCTCATCGCCATCATCCTCCCTCCTCTCCGGAGTCACCTAGTGCAG | 9170 fluorescence intensity (a.u.) |
| GGGATCGTGGCAAATAATTTTTCTTAGTACTAGCACTAGACGGAGTCACCTAGTGCAG | 8190 fluorescence intensity (a.u.) |
| ATGTCCTTGTGTTCATGTGCTCGTACGATACGAAAATAGACGGAGTCACCTAGTGCAG | 8120 fluorescence intensity (a.u.) |
| GATGCTCTCGATGTCGATAAGGTTGCTGATTGTATCCTTTCGGAGTCACCTAGTGCAG | 8650 fluorescence intensity (a.u.) |
| ATAACTTAATGTTTCACTTGTTGGTCAACTGTAACATTTGCGGAGTCACCTAGTGCAG | 10300 fluorescence intensity (a.u.) |
| GCCATTTTTTTTTGTAACTTTACCAAAATTTGGTAAGGTTCGGAGTCACCTAGTGCAG | 9400 fluorescence intensity (a.u.) |
| GATTCTTTTGCTCCGATCGTTTCGCTGTAGATTTGGTTTTCGGAGTCACCTAGTGCAG | 10200 fluorescence intensity (a.u.) |
| ATACTACCTCCGTTTTTTAATAGATGACGTCGTTGACTTTCGGAGTCACCTAGTGCAG | 14600 fluorescence intensity (a.u.) |
| TTGTGTTCTGTTCTTCCGCCTTATTTTTGCATAATGGTTTCGGAGTCACCTAGTGCAG | 15300 fluorescence intensity (a.u.) |
| TGTTAAATGATTAATCAACGTTAGCTCATTTTTGACGTGTCGGAGTCACCTAGTGCAG | 8460 fluorescence intensity (a.u.) |
| TCAACCTTACTTAGTCACATGCTTTATTTTTTTTTTAAAACGGAGTCACCTAGTGCAG | 9800 fluorescence intensity (a.u.) |
| TATTGTACTTGCTCTTATCTCCTTAAAATATATTTATAGCCGGAGTCACCTAGTGCAG | 8730 fluorescence intensity (a.u.) |
| TTGGTGAGAACAGCCTTATCTCTATCGCTTTACTCTCTCTCGGAGTCACCTAGTGCAG | 8150 fluorescence intensity (a.u.) |

| Sequence | binding signal |
| --- | --- |
| TGTTTAATTTTTATTTATTTTGTTTTTTGAGAGGAATCTTCGGAGTCACCTAGTGCAG | 8640 fluorescence intensity (a.u.) |
| GCTTATTTTGTAATATCACTTCAGTCTGCTTCATTCCCTTCGGAGTCACCTAGTGCAG | 10700 fluorescence intensity (a.u.) |
| CATGCTCGTTTCTTGTGGTGCCTAACATTTGTGCTTGTTTCGGAGTCACCTAGTGCAG | 11900 fluorescence intensity (a.u.) |
| ACCTCGCTTCGGACAAGCCGACCCCGCCTGCTATTTCCCGCGGAGTCACCTAGTGCAG | 8450 fluorescence intensity (a.u.) |
| ATTTGTTCAATTTTTCCTGTGATGTAATGAAATGGCTTGTCGGAGTCACCTAGTGCAG | 8360 fluorescence intensity (a.u.) |
| CTCCTTGTCCACGTGGCGGCCTCCGATTCGCTGCCACCTCCGGAGTCACCTAGTGCAG | 9620 fluorescence intensity (a.u.) |
| ACTCACAGAAAGCGTCGGGGCGGGTCTGGGAGGGCTTGCGCGGAGTCACCTAGTGCAG | 9140 fluorescence intensity (a.u.) |
| CTCTCTTCTACTACTCTTCCTTACCTAGCTAGTACTCCTACGGAGTCACCTAGTGCAG | 8910 fluorescence intensity (a.u.) |
| TGCTGGTTCTTTTGGTCAGCTTCAGTTGGCTGCCATGTTGCGGAGTCACCTAGTGCAG | 8340 fluorescence intensity (a.u.) |
| CGGTTTCGGGTTGTTTGTTTGGATATCCGTGATTATTTCACGGAGTCACCTAGTGCAG | 11500 fluorescence intensity (a.u.) |
| TTTAACCATGTCATTTTATTTCTCACACTTGCTTTACTTTCGGAGTCACCTAGTGCAG | 8860 fluorescence intensity (a.u.) |
| TCTCTTTCTAGCTATTGACTGGTTTTTATATTAACTAGCACGGAGTCACCTAGTGCAG | 9280 fluorescence intensity (a.u.) |
| GAATGTGAGTTGGCATTTACTTTCTCCGTCCCAAAAATAACGGAGTCACCTAGTGCAG | 8080 fluorescence intensity (a.u.) |
| TAATTTTTTCACCTAGCTCTACTTATCATCCAATCATAATCGGAGTCACCTAGTGCAG | 9440 fluorescence intensity (a.u.) |
| AAATACAACTTTGACTTTTTGTTTCTTTAAAAATATTTATCGGAGTCACCTAGTGCAG | 9920 fluorescence intensity (a.u.) |
| GTGTAAGTTCATTCCAGATCTATTCATTTTGCGATTCACCCGGAGTCACCTAGTGCAG | 8430 fluorescence intensity (a.u.) |
| TCACCGCTTCCCTTTCCTGACCCCACCAACTCGCCATCCTCGGAGTCACCTAGTGCAG | 8180 fluorescence intensity (a.u.) |
| GACTTAATTTTCTGGATACCATGTTGTCGCGACTTTCGTACGGAGTCACCTAGTGCAG | 9910 fluorescence intensity (a.u.) |
| ATCTGGGTTCGGATGCCTATGTTGTACAGTGCCTTACCTTCGGAGTCACCTAGTGCAG | 8260 fluorescence intensity (a.u.) |
| TGGTTGTGTTCTTGTTGGCTTATACCTTTTTTATGTTTTGCGGAGTCACCTAGTGCAG | 9260 fluorescence intensity (a.u.) |
| ATATCTTCTACACTGCACTTTATGAATATCTCATGTCCTGCGGAGTCACCTAGTGCAG | 8630 fluorescence intensity (a.u.) |
| CAGCTATCCAACCAGTCCTGCAAGTTTTTTTTTTATACAACGGAGTCACCTAGTGCAG | 8340 fluorescence intensity (a.u.) |
| TCCTACATTTTTTTGTTTTCTTTTCCGGCCCTGCTAAATTCGGAGTCACCTAGTGCAG | 8680 fluorescence intensity (a.u.) |
| TGCGAAGGGTTCGTTTCGTTTCCACACCACCATTGGTCAACGGAGTCACCTAGTGCAG | 9310 fluorescence intensity (a.u.) |
| ATTTTAGAGTAGTTTATTTTCCATCATTCGTATTTAAATCCGGAGTCACCTAGTGCAG | 9030 fluorescence intensity (a.u.) |
| GTTGGTTTTATATATTAGTTGTGGTAGCCTCCATTTTGAACGGAGTCACCTAGTGCAG | 8120 fluorescence intensity (a.u.) |
| GGTATCCTATATTCAGTCCAAATATCATCGCCGTGTAGATCGGAGTCACCTAGTGCAG | 8430 fluorescence intensity (a.u.) |

Quoted at random: 4 entries already listed.

| Sequence | binding signal |
| --- | --- |
| CTCCTTGTCCACGTGGCGGCCTCCGATTCGCTGCCACCTCCGGAGTCACCTAGTGCAG | 9620 fluorescence intensity (a.u.) |
| GTTGGTTTTATATATTAGTTGTGGTAGCCTCCATTTTGAACGGAGTCACCTAGTGCAG | 8120 fluorescence intensity (a.u.) |
| GACTTAATTTTCTGGATACCATGTTGTCGCGACTTTCGTACGGAGTCACCTAGTGCAG | 9910 fluorescence intensity (a.u.) |
| ATTTGTTCAATTTTTCCTGTGATGTAATGAAATGGCTTGTCGGAGTCACCTAGTGCAG | 8360 fluorescence intensity (a.u.) |
